Experimental findings from publication PMC8405699 are described below.

These are yes or no findings as the source states them, for the method shown. In cells and extracts the contact can be indirect. Some binding calls cover weakened binding; strength is not graded here.

In this test the target is T1, ID3 protein (human (endogenous in TPC cells)) (UniProt Q02535).
T1 sequence: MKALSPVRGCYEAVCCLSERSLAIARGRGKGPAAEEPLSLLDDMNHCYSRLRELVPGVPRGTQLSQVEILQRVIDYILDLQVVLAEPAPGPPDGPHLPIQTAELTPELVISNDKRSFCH
Put plainly: co-IP; lysate of TPC cells in IP lysis buffer without SDS; precipitated with 1 ug ID3 antibody or IgG at 4 °C overnight, Protein A agarose 4 °C 2 h; immunoblotting; endogenous proteins. In general terms: A western blot detects proteins with antibodies after separation by electrophoresis.

B1: E47 protein (protein, UniProt P15923-2 1-651)
chain: MNQPQRMAPVGTDKELSDLLDFSMMFPLPVTNGKGRPASLAGAQFGGSGLEDRPSSGSWGSGDQSSSSFDPSRTFSEGTHFTESHSSLSSSTFLGPGLGGKSGERGAYASFGRDAGVGGLTQAGFLSGELALNSPGPLSPSGMKGTSQYYPSYSGSSRRRAADGSLDTQPKKVRKVPPGLPSSVYPPSSGEDYGRDATAYPSAKTPSSTYPAPFYVADGSLHPSAELWSPPGQAGFGPMLGGGSSPLPLPPGSGPVGSSGSSSTFGGLHQHERMGYQLHGAEVNGGLPSASSFSSAPGATYGGVSSHTPPVSGADSLLGSRGTTAGSSGDALGKALASIYSPDHSSNNFSSSPSTPVGSPQGLAGTSQWPRAGAPGALSPSYDGGLHGLQSKIEDHLDEAIHVLRSHAVGTAGDMHTLLPGHGALASGFTGPMSLGGRHAGLVGGSHPEDGLAGSTSLMHNHAALPSQPGTLPDLSRPPDSYSGLGRAGATAAASEIKREEKEDEENTSAADHSEEEKKELKAPRARTSSTDEVLSLEEKDLRDRERRMANNARERVRVRDINEAFRELGRMCQMHLKSDKAQTKLLILQQAVQVILGLEQQVRERNLNPKAACLKRREEEKVSGVVGDPQMVLSAPHPGLSEAHNPAGHM
For B1, the binding result is given as “binds”.
